The other results are listed elsewhere or left out.
Tests used:
Test in all cases: log2 fold change, soluble protein after heating vs DMSO (PISA); higher = thermal stabilisation; K562 lysate, 10 uM; active = over 0.2 and 3.5 SD of the protein, either way, in both replicates (recomputed)
vemurafenib = compound: CCCS(=O)(=O)Nc1ccc(F)c(C(=O)c2c[nH]c3ncc(-c4ccc(Cl)cc4)cc23)c1F [vemurafenib]
In short: (§1)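 Following dounce homogenisation of K562 pellets in PBS pH 7.4 with 1 mM MgCl2, crude extract at 1 mg/mL protein was incubated for 30 min with 10 μM compound. Aliquots were then heated for 3 min over 48°C-58°C and pooled, NP-40 was added to 0.5% at 4°C, and soluble protein was recovered as the supernatant at 21,000xg for 90 min. Channel-sum-equalised TMTpro 16plex LC-MS/MS quantified this protein. Each value, from duplicates, is a log-two fold change in thermal stability relative to solvent controls.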

Protein sequences, listed by entry. Tags and fused reporters are not part of them. Lines headed by an entry give the natural chain unless they say otherwise; changes in a name come on top.
UniProt Q14676: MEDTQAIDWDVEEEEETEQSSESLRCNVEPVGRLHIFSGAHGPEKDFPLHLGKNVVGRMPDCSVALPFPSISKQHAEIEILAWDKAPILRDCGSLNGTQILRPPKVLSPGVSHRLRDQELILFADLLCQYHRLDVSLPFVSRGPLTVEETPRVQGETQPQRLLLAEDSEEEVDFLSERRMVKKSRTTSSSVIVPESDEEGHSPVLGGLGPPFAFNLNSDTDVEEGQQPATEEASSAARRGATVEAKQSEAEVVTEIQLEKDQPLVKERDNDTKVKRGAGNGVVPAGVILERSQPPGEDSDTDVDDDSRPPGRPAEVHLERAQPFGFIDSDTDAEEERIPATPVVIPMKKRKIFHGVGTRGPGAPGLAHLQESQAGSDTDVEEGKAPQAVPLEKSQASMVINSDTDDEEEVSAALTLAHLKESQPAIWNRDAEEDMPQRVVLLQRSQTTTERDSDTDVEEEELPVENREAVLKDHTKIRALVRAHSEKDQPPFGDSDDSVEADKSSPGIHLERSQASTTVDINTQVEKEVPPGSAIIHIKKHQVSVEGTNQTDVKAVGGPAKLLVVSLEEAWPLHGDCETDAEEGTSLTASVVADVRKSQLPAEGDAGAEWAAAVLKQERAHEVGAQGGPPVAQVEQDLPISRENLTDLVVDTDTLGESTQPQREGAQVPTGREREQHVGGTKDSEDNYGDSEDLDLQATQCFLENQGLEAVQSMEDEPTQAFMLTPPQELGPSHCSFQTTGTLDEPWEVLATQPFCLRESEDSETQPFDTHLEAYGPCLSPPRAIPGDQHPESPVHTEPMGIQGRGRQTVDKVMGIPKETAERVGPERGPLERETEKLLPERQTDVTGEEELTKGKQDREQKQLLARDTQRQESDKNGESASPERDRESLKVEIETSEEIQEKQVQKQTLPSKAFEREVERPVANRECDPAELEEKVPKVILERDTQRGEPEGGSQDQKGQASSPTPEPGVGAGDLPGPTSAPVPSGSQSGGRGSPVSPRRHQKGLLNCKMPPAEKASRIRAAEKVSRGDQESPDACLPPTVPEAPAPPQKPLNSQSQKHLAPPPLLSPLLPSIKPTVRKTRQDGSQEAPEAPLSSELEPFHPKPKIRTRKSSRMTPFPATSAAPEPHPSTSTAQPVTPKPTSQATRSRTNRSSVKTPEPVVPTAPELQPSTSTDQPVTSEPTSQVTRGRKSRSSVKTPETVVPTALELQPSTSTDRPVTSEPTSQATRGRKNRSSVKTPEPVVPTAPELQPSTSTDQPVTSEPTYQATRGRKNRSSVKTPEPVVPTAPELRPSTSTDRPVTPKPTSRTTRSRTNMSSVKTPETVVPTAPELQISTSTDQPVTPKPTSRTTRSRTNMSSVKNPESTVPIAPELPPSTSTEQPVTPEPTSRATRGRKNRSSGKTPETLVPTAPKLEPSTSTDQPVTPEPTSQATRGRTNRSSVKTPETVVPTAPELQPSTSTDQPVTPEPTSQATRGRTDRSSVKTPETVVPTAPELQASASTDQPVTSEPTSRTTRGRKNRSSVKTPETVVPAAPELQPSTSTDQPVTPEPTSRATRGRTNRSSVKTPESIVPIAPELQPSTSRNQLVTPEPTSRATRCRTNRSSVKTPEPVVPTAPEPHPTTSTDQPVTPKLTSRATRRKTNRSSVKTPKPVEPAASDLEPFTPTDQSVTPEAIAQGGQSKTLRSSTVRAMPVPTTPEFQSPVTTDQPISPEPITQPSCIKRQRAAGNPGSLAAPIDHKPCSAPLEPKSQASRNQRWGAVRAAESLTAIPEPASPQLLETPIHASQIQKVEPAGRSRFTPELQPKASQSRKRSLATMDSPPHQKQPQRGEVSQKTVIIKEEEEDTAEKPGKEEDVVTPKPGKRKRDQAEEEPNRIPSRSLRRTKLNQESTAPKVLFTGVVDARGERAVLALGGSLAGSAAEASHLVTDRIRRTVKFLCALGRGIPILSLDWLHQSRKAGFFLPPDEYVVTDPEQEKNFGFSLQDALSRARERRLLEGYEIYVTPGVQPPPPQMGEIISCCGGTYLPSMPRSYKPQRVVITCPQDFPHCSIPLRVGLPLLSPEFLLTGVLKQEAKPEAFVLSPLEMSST
UniProt Q96PE7: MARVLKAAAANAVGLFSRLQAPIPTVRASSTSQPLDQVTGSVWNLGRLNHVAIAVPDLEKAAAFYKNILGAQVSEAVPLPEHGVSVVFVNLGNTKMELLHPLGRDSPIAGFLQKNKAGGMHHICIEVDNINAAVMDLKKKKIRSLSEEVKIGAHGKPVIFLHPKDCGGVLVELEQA
UniProt Q86XN8: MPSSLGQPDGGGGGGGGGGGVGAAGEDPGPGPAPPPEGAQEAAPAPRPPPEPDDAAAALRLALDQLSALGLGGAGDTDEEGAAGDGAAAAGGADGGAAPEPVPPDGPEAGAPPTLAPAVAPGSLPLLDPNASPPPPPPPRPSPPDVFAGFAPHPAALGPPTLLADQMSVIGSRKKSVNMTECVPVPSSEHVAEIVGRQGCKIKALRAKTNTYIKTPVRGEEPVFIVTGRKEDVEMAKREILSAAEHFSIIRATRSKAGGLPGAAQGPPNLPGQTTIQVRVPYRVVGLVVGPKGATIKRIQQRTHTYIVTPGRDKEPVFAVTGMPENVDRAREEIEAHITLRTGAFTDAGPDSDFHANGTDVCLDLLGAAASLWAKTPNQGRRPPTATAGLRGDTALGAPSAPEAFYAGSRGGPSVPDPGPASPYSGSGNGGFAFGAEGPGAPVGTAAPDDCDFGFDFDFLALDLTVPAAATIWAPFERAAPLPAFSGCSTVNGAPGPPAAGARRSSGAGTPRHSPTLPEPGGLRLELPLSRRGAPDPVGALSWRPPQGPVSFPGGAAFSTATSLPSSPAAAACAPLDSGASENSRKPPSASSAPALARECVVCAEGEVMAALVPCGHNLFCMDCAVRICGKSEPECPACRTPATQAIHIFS
UniProt C9JP00: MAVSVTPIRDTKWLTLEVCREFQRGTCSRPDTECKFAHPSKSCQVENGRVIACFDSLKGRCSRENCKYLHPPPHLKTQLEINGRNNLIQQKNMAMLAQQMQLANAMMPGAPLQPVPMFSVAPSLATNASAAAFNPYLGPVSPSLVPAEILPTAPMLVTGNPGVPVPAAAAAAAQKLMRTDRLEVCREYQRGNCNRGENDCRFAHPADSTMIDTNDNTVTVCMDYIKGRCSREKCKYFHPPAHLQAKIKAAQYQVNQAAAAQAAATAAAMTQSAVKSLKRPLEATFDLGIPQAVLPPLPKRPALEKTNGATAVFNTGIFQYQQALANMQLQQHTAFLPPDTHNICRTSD
UniProt Q12866: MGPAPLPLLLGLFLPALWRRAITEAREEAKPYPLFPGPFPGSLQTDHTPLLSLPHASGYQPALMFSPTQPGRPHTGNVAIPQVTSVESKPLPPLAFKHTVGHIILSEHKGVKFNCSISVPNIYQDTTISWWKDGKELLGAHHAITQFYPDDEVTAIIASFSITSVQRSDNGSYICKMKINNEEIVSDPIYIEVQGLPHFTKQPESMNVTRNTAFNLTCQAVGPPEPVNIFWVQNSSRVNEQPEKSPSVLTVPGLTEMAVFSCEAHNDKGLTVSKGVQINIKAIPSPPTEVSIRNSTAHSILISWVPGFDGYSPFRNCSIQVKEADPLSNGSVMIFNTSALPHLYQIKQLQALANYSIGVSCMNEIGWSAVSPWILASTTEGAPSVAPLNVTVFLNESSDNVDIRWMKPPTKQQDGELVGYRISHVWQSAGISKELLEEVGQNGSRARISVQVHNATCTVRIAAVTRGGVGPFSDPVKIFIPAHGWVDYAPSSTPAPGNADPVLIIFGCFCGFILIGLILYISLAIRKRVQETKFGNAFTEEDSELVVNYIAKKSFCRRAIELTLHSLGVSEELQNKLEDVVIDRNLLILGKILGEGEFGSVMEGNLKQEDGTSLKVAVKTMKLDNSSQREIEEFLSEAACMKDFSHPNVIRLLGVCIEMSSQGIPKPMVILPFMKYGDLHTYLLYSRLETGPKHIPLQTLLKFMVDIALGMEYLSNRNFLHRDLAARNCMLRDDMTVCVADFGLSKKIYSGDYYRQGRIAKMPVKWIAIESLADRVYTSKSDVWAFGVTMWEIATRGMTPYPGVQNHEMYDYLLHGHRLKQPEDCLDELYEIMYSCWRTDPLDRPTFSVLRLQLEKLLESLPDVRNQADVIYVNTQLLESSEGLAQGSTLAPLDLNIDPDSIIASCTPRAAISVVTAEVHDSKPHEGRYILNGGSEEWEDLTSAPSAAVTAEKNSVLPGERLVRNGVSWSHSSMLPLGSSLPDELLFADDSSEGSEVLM
UniProt P25205: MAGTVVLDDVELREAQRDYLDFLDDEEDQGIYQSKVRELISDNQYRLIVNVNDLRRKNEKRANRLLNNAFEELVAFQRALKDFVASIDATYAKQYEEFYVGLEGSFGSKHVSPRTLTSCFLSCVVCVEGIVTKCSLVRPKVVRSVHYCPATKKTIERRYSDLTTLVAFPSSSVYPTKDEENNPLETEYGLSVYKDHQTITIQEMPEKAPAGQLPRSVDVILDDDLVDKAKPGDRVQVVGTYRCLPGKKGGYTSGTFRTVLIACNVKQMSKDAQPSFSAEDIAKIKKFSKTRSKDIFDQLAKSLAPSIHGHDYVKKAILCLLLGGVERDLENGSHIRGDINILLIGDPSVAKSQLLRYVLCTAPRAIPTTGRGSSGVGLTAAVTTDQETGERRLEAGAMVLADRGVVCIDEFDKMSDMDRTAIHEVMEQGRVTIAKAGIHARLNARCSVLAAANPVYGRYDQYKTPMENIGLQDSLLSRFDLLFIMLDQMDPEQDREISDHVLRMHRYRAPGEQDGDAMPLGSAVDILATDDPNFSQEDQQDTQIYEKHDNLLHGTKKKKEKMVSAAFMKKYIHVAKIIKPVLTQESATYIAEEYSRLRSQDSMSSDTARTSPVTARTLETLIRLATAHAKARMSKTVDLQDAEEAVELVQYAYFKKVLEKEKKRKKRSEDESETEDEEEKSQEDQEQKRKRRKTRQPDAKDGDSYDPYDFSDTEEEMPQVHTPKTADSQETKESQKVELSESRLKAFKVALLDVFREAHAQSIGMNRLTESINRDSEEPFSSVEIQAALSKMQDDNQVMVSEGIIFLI
UniProt Q68D91: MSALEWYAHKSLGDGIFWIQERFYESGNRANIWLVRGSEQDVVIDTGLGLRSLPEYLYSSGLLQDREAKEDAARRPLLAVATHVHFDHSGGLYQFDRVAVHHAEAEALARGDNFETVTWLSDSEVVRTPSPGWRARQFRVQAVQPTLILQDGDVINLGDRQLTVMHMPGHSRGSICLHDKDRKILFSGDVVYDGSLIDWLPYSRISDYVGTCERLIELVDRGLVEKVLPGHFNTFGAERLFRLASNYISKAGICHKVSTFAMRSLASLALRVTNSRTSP
UniProt Q86U44, whole entry, looked up: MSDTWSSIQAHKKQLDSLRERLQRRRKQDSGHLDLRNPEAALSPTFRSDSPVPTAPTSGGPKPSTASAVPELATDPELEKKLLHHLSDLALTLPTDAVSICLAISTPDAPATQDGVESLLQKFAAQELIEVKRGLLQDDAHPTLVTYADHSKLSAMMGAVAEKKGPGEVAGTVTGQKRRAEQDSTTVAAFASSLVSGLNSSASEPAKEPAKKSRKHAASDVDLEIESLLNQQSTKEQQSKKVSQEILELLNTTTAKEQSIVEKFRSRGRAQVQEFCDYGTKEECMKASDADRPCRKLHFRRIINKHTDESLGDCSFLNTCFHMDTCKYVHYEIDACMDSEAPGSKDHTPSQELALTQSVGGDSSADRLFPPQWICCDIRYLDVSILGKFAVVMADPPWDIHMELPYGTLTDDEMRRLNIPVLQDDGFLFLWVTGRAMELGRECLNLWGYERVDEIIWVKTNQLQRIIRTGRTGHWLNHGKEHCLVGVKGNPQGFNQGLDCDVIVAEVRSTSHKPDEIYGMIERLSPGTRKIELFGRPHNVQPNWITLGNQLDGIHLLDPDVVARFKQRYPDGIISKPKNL
UniProt Q16626: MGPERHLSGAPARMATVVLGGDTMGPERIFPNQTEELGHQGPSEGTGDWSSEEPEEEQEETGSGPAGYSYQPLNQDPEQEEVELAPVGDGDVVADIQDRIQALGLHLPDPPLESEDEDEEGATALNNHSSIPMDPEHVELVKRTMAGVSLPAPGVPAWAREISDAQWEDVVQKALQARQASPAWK
UniProt Q9NR56: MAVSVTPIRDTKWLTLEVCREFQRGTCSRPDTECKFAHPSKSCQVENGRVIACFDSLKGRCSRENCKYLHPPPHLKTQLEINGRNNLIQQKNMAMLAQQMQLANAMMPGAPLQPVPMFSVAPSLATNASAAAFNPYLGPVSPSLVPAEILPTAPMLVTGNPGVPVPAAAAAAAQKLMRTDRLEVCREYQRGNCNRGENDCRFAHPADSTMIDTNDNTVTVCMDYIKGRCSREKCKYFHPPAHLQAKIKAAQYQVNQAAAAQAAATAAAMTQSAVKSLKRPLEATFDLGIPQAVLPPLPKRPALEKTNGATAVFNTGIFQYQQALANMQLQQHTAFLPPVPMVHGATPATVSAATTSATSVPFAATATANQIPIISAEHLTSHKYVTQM

[1] = compound: CCCS(=O)(=O)Nc1ccc(F)c(C(=O)c2c[nH]c3ncc(Cl)cc23)c1F
In short: as §1

barasertib = compound: CCN(CCCOc1ccc2c(Nc3cc(CC(=O)Nc4cccc(F)c4)[nH]n3)ncnc2c1)CCOP(=O)(O)O [barasertib]
In short: as §1

[2] = compound: CC[C@@H]1C(=O)N(C)c2cnc(Nc3ccc(C(=O)NC4CCN(C)CC4)cc3OC)nc2N1C1CCCC1
In short: as §1

volasertib = compound: CC[C@@H]1C(=O)N(C)c2cnc(Nc3ccc(C(=O)N[C@H]4CC[C@H](N5CCN(CC6CC6)CC5)CC4)cc3OC)nc2N1C(C)C [volasertib]
In short: as §1

[3] = compound: CCn1c(C(=O)N(C2CC2)C2CC2)cc2c3c(ncn3C)c(Nc3cc(C)n(C)n3)nc21
In short: as §1

[4] = compound: CCn1cc(-c2ccnc3[nH]c(-c4cccc(CN(C)C)c4)cc23)c(-c2ccc(NC(=O)N(C)C)cc2)n1
In short: as §1

[5] = compound: CN1CCC(CNc2ccc3ncc(-c4cccc(OC(F)(F)F)c4)n3n2)CC1
In short: as §1

saracatinib = compound: CN1CCN(CCOc2cc(OC3CCOCC3)c3c(Nc4c(Cl)ccc5c4OCO5)ncnc3c2)CC1 [saracatinib]
In short: as §1

sotrastaurin = compound: CN1CCN(c2nc(C3=C(c4c[nH]c5ccccc45)C(=O)NC3=O)c3ccccc3n2)CC1 [sotrastaurin]
In short: as §1

alvocidib = compound: CN1CC[C@H](c2c(O)cc(O)c3c(=O)cc(-c4ccccc4Cl)oc23)[C@H](O)C1 [alvocidib]
In short: as §1

Tubastatin A = compound: CN1CCc2c(c3ccccc3n2Cc2ccc(C(=O)NO)cc2)C1 [Tubastatin A]
In short: as §1

[6] = compound: CNC(=O)C1=CC=CC=C1NC2=NC(=NC=C2Cl)NC3=C(C=C(C=C3)N4CCOCC4)OC
In short: as §1

defactinib = compound: CNC(=O)c1ccc(Nc2ncc(C(F)(F)F)c(NCc3nccnc3N(C)S(C)(=O)=O)n2)cc1 [defactinib]
In short: as §1

[7] = compound: CNc1nc(-c2ccc3c(N)n[nH]c3c2)cc(N2C[C@@H](C(=O)NC3CCCCC3)CC[C@H]2C)n1
In short: as §1

encorafenib = compound: COC(=O)N[C@@H](C)CNc1nccc(-c2cn(C(C)C)nc2-c2cc(Cl)cc(NS(C)(=O)=O)c2F)n1 [encorafenib]
In short: as §1

[8] = compound: COC(=O)[C@H](CCSC)NC(=O)C1=C(C=C(C=C1)NC[C@H](CS)N)C2=CC=CC=C2
In short: as §1

alisertib = compound: COc1cc(Nc2ncc3c(n2)-c2ccc(Cl)cc2C(c2c(F)cccc2OC)=NC3)ccc1C(=O)O [alisertib]
In short: as §1

[9] = compound: COc1cc2nc(-c3cc(F)ccc3O)nc(N[C@@H]3CNC[C@H]3C(C)(C)O)c2cc1OC
In short: as §1

gefitinib = compound: COc1cc2ncnc(Nc3ccc(F)c(Cl)c3)c2cc1OCCCN1CCOCC1 [gefitinib]
In short: as §1

Measured: log2 fold change

MDC1 (UniProt Q14676)
inactive: vemurafenib 0.016 | [1] 0.034 | barasertib -0.002 | [2] 0.02 | volasertib -0.023 | [3] -0.052 | [4] -0.011 | [5] 0.013 | saracatinib -0.001 | sotrastaurin 0.043 | alvocidib 0 | Tubastatin A 0.047 | [6] -0.007 | defactinib -0.011 | [7] 0.009 | encorafenib 0.011 | [8] 0.051 | alisertib 0.002 | [9] 0.027 | gefitinib 0.008

MCEE (UniProt Q96PE7)
inactive: vemurafenib -0.003 | [1] 0.08 | barasertib 0.028 | [2] 0.06 | volasertib -0.032 | [3] 0.1 | [4] -0.062 | [5] -0.027 | saracatinib -0.007 | sotrastaurin 0.004 | alvocidib 0.048 | Tubastatin A -0.014 | [6] 0.055 | defactinib 0.018 | [7] 0.046 | encorafenib 0.047 | [8] -0.013 | alisertib 0.051 | [9] -0.014 | gefitinib -0.066

MEX3D isoform 3 (UniProt Q86XN8)
inactive: vemurafenib -0.239 | [1] 0.009 | barasertib 0.154 | [2] 0.003 | volasertib 0.029 | [3] 0.053 | [4] -0.031 | [5] 0.044 | saracatinib -0.146 | sotrastaurin -0.001 | alvocidib -0.023 | Tubastatin A -0.163 | [6] 0.037 | defactinib 0.041 | [7] -0.024 | encorafenib -0.007 | [8] -0.025 | alisertib -0.001 | [9] -0.013 | gefitinib -0.04

MBNL1 (UniProt C9JP00)
inactive: vemurafenib 0.018 | [1] 0.051 | barasertib 0.04 | [2] 0.216 | volasertib -0.008 | [3] -0.03 | [4] -0.04 | [5] 0.032 | saracatinib 0.027 | sotrastaurin -0.029 | alvocidib 0.018 | Tubastatin A 0.051 | [6] -0.063 | defactinib -0.039 | [7] 0.126 | encorafenib 0.012 | [8] -0.135 | alisertib 0.002 | [9] 0.052 | gefitinib 0.028

MBD3 (UniProt O95983)
inactive: vemurafenib -0.061 | [1] 0.001 | barasertib -0.033 | [2] 0.025 | volasertib -0.028 | [3] 0.041 | [4] -0.054 | [5] 0.079 | saracatinib 0.037 | sotrastaurin -0.039 | alvocidib -0.064 | Tubastatin A -0.023 | [6] 0.01 | defactinib 0.113 | [7] -0.043 | encorafenib 0.048 | [8] -0.032 | alisertib 0.008 | [9] -0.003 | gefitinib -0.045

MECP2 isoform 2 (UniProt P51608)
inactive: vemurafenib 0.04 | [1] 0.009 | barasertib -0.093 | [2] 0.051 | volasertib 0 | [3] -0.039 | [4] -0.333 | [5] 0.072 | saracatinib -0.07 | sotrastaurin 0.046 | alvocidib -0.045 | Tubastatin A 0.04 | [6] 0.032 | defactinib -0.026 | [7] 0.052 | encorafenib 0.089 | [8] 0.01 | alisertib -0.039 | [9] -0.017 | gefitinib -0.021

MERTK (UniProt Q12866)
inactive: vemurafenib 0.062 | [1] -0.067 | barasertib 0.298 | [2] -0.004 | volasertib -0.031 | [3] -0.066 | [4] 0.133 | [5] -0.16 | saracatinib -0.088 | sotrastaurin 0.013 | alvocidib 0.03 | Tubastatin A 0.03 | [6] -0.015 | defactinib -0.023 | [7] -0.045 | encorafenib -0.077 | [8] -0.052 | alisertib -0.013 | [9] -0.03 | gefitinib 0.156

MCUR1 (UniProt Q96AQ8)
inactive: vemurafenib 0.019 | [1] 0.023 | barasertib -0.014 | [2] -0.002 | volasertib 0.041 | [3] -0.008 | [4] -0.022 | [5] -0.017 | saracatinib 0.024 | sotrastaurin -0.036 | alvocidib 0.012 | Tubastatin A 0.172 | [6] -0.03 | defactinib -0.022 | [7] 0.04 | encorafenib -0.005 | [8] 0.026 | alisertib 0.063 | [9] 0.094 | gefitinib 0.003

MEF2D (UniProt Q14814)
inactive: vemurafenib 0.004 | [1] 0.038 | barasertib -0.018 | [2] 0.032 | volasertib -0.009 | [3] -0.034 | [4] 0.02 | [5] 0.046 | saracatinib 0.032 | sotrastaurin 0.032 | alvocidib -0.07 | Tubastatin A 0.029 | [6] -0.01 | defactinib 0.037 | [7] 0.05 | encorafenib 0.074 | [8] -0.138 | alisertib 0.136 | [9] 0.007 | gefitinib -0.019

MCM3 isoform 2 (UniProt P25205)
inactive: vemurafenib -0.018 | [1] 0.025 | barasertib 0.001 | [2] -0.001 | volasertib -0.009 | [3] 0.02 | [4] 0.065 | [5] -0.015 | saracatinib -0.024 | sotrastaurin -0.013 | alvocidib 0.018 | Tubastatin A 0 | [6] 0.01 | defactinib 0.014 | [7] -0.008 | encorafenib -0.002 | [8] -0.021 | alisertib 0.01 | [9] -0.007 | gefitinib -0.018

MBLAC2 (UniProt Q68D91)
inactive: vemurafenib -0.069 | [1] -0.006 | barasertib 0.013 | [2] -0.042 | volasertib 0.002 | [3] 0.008 | [4] 0.036 | [5] 0.078 | saracatinib -0.042 | sotrastaurin 0.016 | alvocidib -0.011 | Tubastatin A 0.033 | [6] 0.041 | defactinib 0.059 | [7] -0.096 | encorafenib 0.06 | [8] -0.003 | alisertib 0.005 | [9] 0.013 | gefitinib 0.033

MCAM (UniProt P43121)
inactive: vemurafenib 0.038 | [1] 0.021 | barasertib 0.019 | [2] 0.165 | volasertib 0.018 | [3] -0.031 | [4] -0.07 | [5] 0.082 | saracatinib -0.009 | sotrastaurin -0.006 | alvocidib -0.024 | Tubastatin A 0.052 | [6] 0.006 | defactinib -0.041 | [7] 0.052 | encorafenib -0.031 | [8] -0.016 | alisertib -0.003 | [9] 0.022 | gefitinib 0.019

METTL3 (UniProt Q86U44)
inactive: vemurafenib 0.005 | [1] 0.014 | barasertib 0.007 | [2] 0.032 | volasertib -0.013 | [3] 0.007 | [4] -0.001 | [5] -0.021 | saracatinib 0.006 | sotrastaurin -0.023 | alvocidib -0.014 | Tubastatin A -0.009 | [6] 0.036 | defactinib -0.015 | [7] -0.007 | encorafenib 0.011 | [8] 0.014 | alisertib -0.024 | [9] 0.013 | gefitinib 0.023

MED13 (UniProt Q9UHV7)
inactive: vemurafenib 0.103 | [1] 0.031 | barasertib 0.042 | [2] -0.003 | volasertib -0.059 | [3] -0.012 | [4] -0.045 | [5] 0.012 | saracatinib 0.03 | sotrastaurin -0.028 | alvocidib -0.003 | Tubastatin A -0.05 | [6] -0.015 | defactinib -0.019 | [7] -0.009 | encorafenib 0.011 | [8] -0.03 | alisertib -0.01 | [9] 0.003 | gefitinib 0.045

MEA1 (UniProt Q16626)
inactive: vemurafenib 0.071 | [1] -0.041 | barasertib 0.018 | [2] 0.042 | volasertib 0.062 | [3] 0.021 | [4] -0.08 | [5] -0.027 | saracatinib 0 | sotrastaurin -0.003 | alvocidib 0 | Tubastatin A 0.093 | [6] 0.077 | defactinib 0.035 | [7] 0.039 | encorafenib -0.046 | [8] 0.032 | alisertib 0.065 | [9] -0.085 | gefitinib 0.059

MBNL1 isoform 5 (UniProt Q9NR56)
inactive: vemurafenib -0.031 | [1] -0.006 | barasertib -0.004 | [2] 0.035 | volasertib -0.013 | [3] 0.055 | [4] 0.03 | [5] 0.067 | saracatinib -0.01 | sotrastaurin -0.048 | alvocidib -0.014 | Tubastatin A 0.013 | [6] -0.028 | defactinib 0.011 | [7] -0.033 | encorafenib 0.036 | [8] -0.145 | alisertib 0.029 | [9] -0.024 | gefitinib -0.006

— the supplement of paper PMC10849652
